# Melanoma cell counts after drug treatment

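The test systems are human melanoma cell lines, treated with two drugs together for 72 h and then stained and imaged. Each value is the count of nuclei relative to DMSO-treated wells, in %, so that 100 equals the control. Every drug was used at one fixed concentration, the lower of two screened (a fifth of the higher). The file gives one value for each pair and line, without errors, so small differences may be noise.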 Only some of the drugs and lines screened are listed, without regard to their results.

Drugs:
vismodegib (1 µM): CS(=O)(=O)c1ccc(C(=O)Nc2ccc(Cl)c(-c3ccccn3)c2)c(Cl)c1
OSI-906 (0.4 µM): C[C@]1(O)C[C@@H](c2nc(-c3ccc4ccc(-c5ccccc5)nc4c3)c3c(N)nccn32)C1
CX-4945 (0.4 µM): O=C(O)c1ccc2c(c1)nc(Nc1cccc(Cl)c1)c1ccncc12
nutlin-3 (0.1 µM): COc1ccc(C2=N[C@@H](c3ccc(Cl)cc3)[C@@H](c3ccc(Cl)cc3)N2C(=O)N2CCNC(=O)C2)c(OC(C)C)c1
perifosine (0.4 µM): CCCCCCCCCCCCCCCCCCOP(=O)([O-])OC1CC[N+](C)(C)CC1
FK866 (0.01 µM): O=C(/C=C/c1cccnc1)NCCCCC1CCN(C(=O)c2ccccc2)CC1
dasatinib (0.004 µM): Cc1nc(Nc2ncc(C(=O)Nc3c(C)cccc3Cl)s2)cc(N2CCN(CCO)CC2)n1
vincristine (0.0001 µM): CC[C@]1(O)C[C@H]2CN(CCc3c([nH]c4ccccc34)[C@@](C(=O)OC)(c3cc4c(cc3OC)N(C=O)[C@H]3[C@@](O)(C(=O)OC)[C@H](OC(C)=O)[C@]5(CC)C=CCN6CC[C@]43[C@@H]65)C2)C1

- dasatinib + CX-4945 | MEL-HO: 77.1; LB2518-MEL: 106; LOX IMVI: 55.5; COLO 792: 66.5; COLO 829: 83.5; IST-MEL1: 88.0; COLO 800: 68.2; G-361: 79.4
- vincristine + perifosine | MEL-HO: 88.2; LB2518-MEL: 81.5; LOX IMVI: 91.1; COLO 792: 87.0; COLO 829: 63.5; IST-MEL1: 95.6; COLO 800: 126; G-361: 102
- vismodegib + OSI-906 | MEL-HO: 100; LB2518-MEL: 98.4; LOX IMVI: 81.4; COLO 792: 87.7; COLO 829: 59.5; IST-MEL1: 100; COLO 800: 42.8; G-361: 94.3
- dasatinib + perifosine | MEL-HO: 95.1; LB2518-MEL: 111; LOX IMVI: 86.3; COLO 792: 82.4; COLO 829: 109; IST-MEL1: 97.1; COLO 800: 80.8; G-361: 107
- OSI-906 + CX-4945 | MEL-HO: 92.1; LB2518-MEL: 98.6; LOX IMVI: 107; COLO 792: 99.0; COLO 829: 99.6; IST-MEL1: 116; COLO 800: 55.4; G-361: 93.3
- CX-4945 + vismodegib | MEL-HO: 117; LB2518-MEL: 121; LOX IMVI: 88.8; COLO 792: 95.3; COLO 829: 88.3; IST-MEL1: 112; COLO 800: 76.3; G-361: 78.0
- nutlin-3 + FK866 | MEL-HO: 48.9; LB2518-MEL: 87.2; LOX IMVI: 104; COLO 792: 55.8; COLO 829: 67.8; IST-MEL1: 74.7; COLO 800: 25.2; G-361: 9.2
- dasatinib + vismodegib | MEL-HO: 92.8; LB2518-MEL: 118; LOX IMVI: 66.7; COLO 792: 52.6; COLO 829: 86.4; IST-MEL1: 97.7; COLO 800: 116; G-361: 92.0
- FK866 + CX-4945 | MEL-HO: 46.4; LB2518-MEL: 85.2; LOX IMVI: 64.0; COLO 792: 49.9; COLO 829: 74.0; IST-MEL1: 62.8; COLO 800: 40.4; G-361: 4.9
- FK866 + vincristine | MEL-HO: 42.0; LB2518-MEL: 82.9; LOX IMVI: 55.0; COLO 792: 65.1; COLO 829: 59.6; IST-MEL1: 68.0; COLO 800: 33.2; G-361: 12.1
- nutlin-3 + dasatinib | MEL-HO: 85.3; LB2518-MEL: 80.8; LOX IMVI: 89.4; COLO 792: 60.9; COLO 829: 64.2; IST-MEL1: 79.7; COLO 800: 84.4; G-361: 86.8
- perifosine + FK866 | MEL-HO: 39.1; LB2518-MEL: 89.6; LOX IMVI: 104; COLO 792: 49.4; COLO 829: 83.8; IST-MEL1: 72.1; COLO 800: 17.9; G-361: 10.6
- vismodegib + perifosine | MEL-HO: 96.2; LB2518-MEL: 109; LOX IMVI: 58.5; COLO 792: 97.2; COLO 829: 121; IST-MEL1: 91.7; COLO 800: 78.6; G-361: 101
- vismodegib + vincristine | MEL-HO: 103; LB2518-MEL: 83.4; LOX IMVI: 68.3; COLO 792: 86.1; COLO 829: 77.3; IST-MEL1: 95.5; COLO 800: 100; G-361: 83.5
- vincristine + OSI-906 | MEL-HO: 105; LB2518-MEL: 88.8; LOX IMVI: 68.9; COLO 792: 97.8; COLO 829: 74.1; IST-MEL1: 106; COLO 800: 62.0; G-361: 93.3
- FK866 + OSI-906 | MEL-HO: 45.6; LB2518-MEL: 84.2; LOX IMVI: 76.0; COLO 792: 52.1; COLO 829: 102; IST-MEL1: 69.8; COLO 800: 33.3; G-361: 6.5
- dasatinib + OSI-906 | MEL-HO: 83.8; LB2518-MEL: 86.6; LOX IMVI: 57.3; COLO 792: 50.2; COLO 829: 92.3; IST-MEL1: 83.1; COLO 800: 45.3; G-361: 77.5
- FK866 + vismodegib | MEL-HO: 42.6; LB2518-MEL: 83.1; LOX IMVI: 56.0; COLO 792: 42.2; COLO 829: 48.0; IST-MEL1: 66.0; COLO 800: 24.0; G-361: 6.4
- CX-4945 + vincristine | MEL-HO: 90.1; LB2518-MEL: 126; LOX IMVI: 85.3; COLO 792: 98.6; COLO 829: 95.0; IST-MEL1: 101; COLO 800: 67.1; G-361: 81.6
- perifosine + CX-4945 | MEL-HO: 107; LB2518-MEL: 141; LOX IMVI: 78.3; COLO 792: 91.7; COLO 829: 71.7; IST-MEL1: 117; COLO 800: 129; G-361: 86.6
- nutlin-3 + vismodegib | MEL-HO: 105; LB2518-MEL: 74.4; LOX IMVI: 59.7; COLO 792: 91.8; COLO 829: 85.0; IST-MEL1: 106; COLO 800: 85.8; G-361: 86.9
- nutlin-3 + CX-4945 | MEL-HO: 83.9; LB2518-MEL: 83.7; LOX IMVI: 57.7; COLO 792: 85.3; COLO 829: 84.6; IST-MEL1: 103; COLO 800: 88.2; G-361: 90.8
- vincristine + dasatinib | MEL-HO: 95.0; LB2518-MEL: 86.5; LOX IMVI: 56.8; COLO 792: 71.6; COLO 829: 74.4; IST-MEL1: 86.3; COLO 800: 61.6; G-361: 88.8
- OSI-906 + perifosine | MEL-HO: 96.6; LB2518-MEL: 80.3; LOX IMVI: 66.0; COLO 792: 96.0; COLO 829: 91.4; IST-MEL1: 92.8; COLO 800: 66.8; G-361: 87.3
- nutlin-3 + perifosine | MEL-HO: 110; LB2518-MEL: 107; LOX IMVI: 68.3; COLO 792: 101; COLO 829: 103; IST-MEL1: 106; COLO 800: 118; G-361: 88.9
- FK866 + dasatinib | MEL-HO: 21.1; LB2518-MEL: 109; LOX IMVI: 49.5; COLO 792: 54.1; COLO 829: 65.3; IST-MEL1: 63.0; COLO 800: 10.4; G-361: 8.6
- nutlin-3 + vincristine | MEL-HO: 101; LB2518-MEL: 90.3; LOX IMVI: 68.9; COLO 792: 94.4; COLO 829: 64.5; IST-MEL1: 86.7; COLO 800: 80.8; G-361: 88.4
- OSI-906 + nutlin-3 | MEL-HO: 105; LB2518-MEL: 84.8; LOX IMVI: 103; COLO 792: 94.9; COLO 829: 88.3; IST-MEL1: 98.9; COLO 800: 52.7; G-361: 92.3

Once more, the final 3:

- FK866 + dasatinib | MEL-HO: 21.1; LB2518-MEL: 109; LOX IMVI: 49.5; COLO 792: 54.1; COLO 829: 65.3; IST-MEL1: 63.0; COLO 800: 10.4; G-361: 8.6
- nutlin-3 + vincristine | MEL-HO: 101; LB2518-MEL: 90.3; LOX IMVI: 68.9; COLO 792: 94.4; COLO 829: 64.5; IST-MEL1: 86.7; COLO 800: 80.8; G-361: 88.4
- OSI-906 + nutlin-3 | MEL-HO: 105; LB2518-MEL: 84.8; LOX IMVI: 103; COLO 792: 94.9; COLO 829: 88.3; IST-MEL1: 98.9; COLO 800: 52.7; G-361: 92.3

Source: doi:10.1371/journal.pone.0140310, primary screening data, rounded.